Experimental data published in patent publication US20120065261A1, “Creatine compositions for skin treatment” (Avicena Group, Inc., priority 2006, published 2012).
Some of these results come from one statement about several compounds together.

Legend:
[1] = system: UV-induced lipid peroxidation; assay: UV-induced lipid peroxidation of lecithin dispersions (TBARS); assay type: biochemical; settings: all concentrations tested
Protocol: Test materials were added to dispersions of lecithin (a natural phospholipid) and irradiated with UVB light (11,000 μW/cm^2 at the source). After 3 hours, trichloroacetic acid and thiobarbituric acids were added and the concentration of Thiobarbituric Acid Reactive Substance (TBARS), such as malondialdehyde, was measured spectroscopically (malonaldehyde is a breakdown product generated spontaneously from oxidized lipid) at 550 nm using an UV microplate reader. For references describing this method, see Pelle et al. “Arch. Biochem. Biophys.” 283:234-40 (1990); Wang et al. “J. Ethnopharmacol.” 82:169-175 (2002).

[2] = system: type I collagen levels in human dermal fibroblasts; assay: Type I collagen in human dermal fibroblast conditioned medium (sandwich ELISA); assay type: cell-based; settings: about 10 μg/mL
Protocol: Normal human dermal fibroblasts (passage 5, lot number 7F1245, Cambrix, Walkersville, Md.) were seeded in a 96-well plate in DMEM medium (high glucose) containing 5% fetal calf serum and grown to late subconfluent stage. Two sets of aqueous solutions of 10 mg/mL of creatine ascorbate, creatine monohydrate, creatine pyruvate, ascorbic acid and magnesium ascorbyl phosphate were prepared in Type I water. The first set of solutions were prepared immediately before being added to cell cultures. The second set of solutions were preincubated at pH 4.0 (±0.1) five days, then the solutions were lyophilized and the substrates were redissolved in water at 10 mg/mL prior to being added to the cell cultures. Both the freshly prepared solutions and the solutions of preincubated test materials were administered to the cells, and cell culture conditioned media was harvested 5 days after the start of the experiment and tested for type I collagen by sandwich ELISA using affinity purified antibodies, followed by streptavidin-avidin-HRP conjugate and ABTS, according to standard ELISA protocol. The colorimetric signal proportional to collagen content was measured with a microplate spectrophotometer at 405 nm. For references describing this method, see Dobek et al. “J. Dermatol. Sci.” 8:18 (1994) and Zhao et al. “Phytomedicine” 12:132 (2005).

For `CN(CC(=O)O)C(=N)N.O` [creatine monohydrate], which “inhibitory activity against lipid peroxidation” value [1] is on record?
Its value is “less than 10%”.

Which “stimulation of collagen levels” value [2] does the source give for creatine ascorbate here?
The value was “at least 50%”.

With creatine pyruvate as the compound, how does the “inhibitory activity against lipid peroxidation” value [1] read?
Its value is “less than 10%”.

What about the “stimulation of collagen levels” value [2] of the same compound?
The value was “at least 50%”.
